In US9580398B2, “Compounds, compositions, and methods for modulating ferroptosis and treating excitotoxic disorders” (The Trustees of Columbia University in the City of New York, priority 2012, dated 2017):
At least one structure is not confirmed: it was looked up by name or label, or the drawing left a doubt.

System: ROS production in HT-1080 cells
Experiment: Analysis of reactive oxygen species production by flow cytometry (H2DCFDA, C11-BODIPY, MitoSOX)
Assay type: cell-based, human
Conditions: erastin 10 μM

CCOc1ccccc1-n1c(C(C)N2CCN(C(=O)COc3ccc(Cl)cc3)CC2)nc2ccccc2c1=O (stereo not shown) [erastin]
cytosolic and lipid ROS after treatment: time-dependent increase in cytosolic and lipid ROS beginning at 2 hours
